Results deposited as PubChem BioAssay AID686943 (Drosophila RNAi Screening Center, 2013).
The deposit covers about 23,000 reagents; below is an unselected part of those that have a named target and a result. 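Extra replicates exist only for a retested subset of genes; insulin dose and duration not given; both raised and lowered dpERK matter.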 A plus sign joins genes that one reagent is predicted to hit. Not given: the amount of reagent, the time to read-out.

Aim: 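Knockdowns that increase or decrease active ERK after insulin receptor stimulation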 (primary screen)
System: Drosophila S2R+ haemocyte-like cells expressing YFP-tagged ERK (Rolled)
Knock-down reagent: long dsRNA against Drosophila genes
Treatment: insulin stimulation versus unstimulated cells; dose and duration not given
Detection: 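Per-plate z-scores of phospho-ERK immunostaining normalised to YFP-tagged ERK, measured with and without insulin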
Scale: replicate 1, z-score of dpERK with insulin and replicate 2, z-score of dpERK with insulin: higher = more active ERK per ERK-YFP after insulin; replicate 1, z-score of dpERK under basal conditions: higher = more basal active ERK per ERK-YFP; replicate 1, z-score of ERK-YFP with insulin: higher = more YFP-tagged ERK signal

gene | dsRNA | replicate 1, z-score of dpERK with insulin | replicate 2, z-score of dpERK with insulin | replicate 1, z-score of dpERK under basal conditions | replicate 1, z-score of ERK-YFP with insulin
CG11134 | DRSC19384 | 0.63 | 1.96 | 1.57 | -0.38
Polr2A (RNA polymerase II subunit A) | DRSC20280 | -0.37 | 0.99 | 0.53 | -4.02
not (non-stop) | DRSC11378 | -0.4 | -0.42 | 0.99 | 0.01
UQCR-C2 (Ubiquinol-cytochrome c reductase core protein 2) | DRSC10405 | -1.27 | -1.56 | -0.54 | 0.78
Sec22 + CG13358 | DRSC18538 | -0.95 | -1.78 | -0.34 | 4.94
CG43254 | DRSC12638 | 1.17 | 0.23 | 0.52 | -1.39
CG8372 | DRSC03086 | -0.31 | -0.18 | -0.13 | 1.14
Galphaq (G protein alpha subunit q) | DRSC07432 | -0.01 | 0.6 | 0.28 | 0.58
